These results are taken from PubChem BioAssay AID2685 (National Center for Advancing Translational Sciences (NCATS), 2010).

The assay in a line: qHTS Assay for Lipid Storage Modulators in Drosophila S3 Cells.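 For cell number change: cells counted by Cell Tracker Red CMTPX staining in the red channel.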 Particulars: BODIPY lipid droplet fluorescence, 18-24 h; for cell number change: measured here: cell count max response, cells fed with added oleic acid. The method, boiled down:
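Drosophila S3 cells loaded with oleic acid (400 uM, as added) and compounds at several concentrations; lipid droplets imaged by 488-nm laser-scanning cytometry, 500–530 nm intensity and object ratio to cell channel. Percent activity normalized to 20 uM Triacsin C.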

Setting [1] is: measured here: cell number channel AC50, cells fed with added oleic acid.
Where [2] appears, read: measured here: lipid fluorescence (Fed channel) AC50, cells fed with added oleic acid.

The structures appear in SMILES notation. Some of the results follow. The main result of the screen is listed elsewhere. These columns were measured beside it and carry no call. Most of these compounds were active or inconclusive in the main read-out, so they are no random draw. The note in brackets gives the kind of curve behind each potency; many fits are weak.

One may read the AC50 as the concentration giving half of the maximal activity seen. As to `O=S(=O)(Nc1nc2ccccc2nc1NCc1ccco1)c1ccc(F)cc1`, the cell number change was 37%. Besides, the AC50 under setting [1] was 18.4 µM [rising, single point].

As to `CCOC(=O)N1CCN(CCC(=O)Nc2cccc(Cl)c2C)CC1`, the cell number change was -1.46%.

Take `O=C(/C=C/Sc1ncn[nH]1)c1ccc(Cl)cc1`: the cell number change was -18.4%. In addition, the AC50 under setting [2] is 29.1 µM [falling, single point].

For the molecule `Cc1ccc(C)c(S(=O)(=O)Nc2cc3c4c(c2)CCC(=O)N4CCC3)c1`, the AC50 under setting [1] is 2.31 µM [rising, partial curve, poor fit].

Take `Cc1nc2c3ccccc3nc(NNC(=O)CCC(=O)N3CCCC(C)C3)n2n1` (stereo not given): the cell number change is -10.4%. Also, the AC50 under setting [2] is 16.4 µM [rising, partial curve].

Regarding `COc1cccc(CNC(=O)COC(=O)c2nc(Cl)c(Cl)c(Cl)c2Cl)c1`, the AC50 under setting [2] is 7.31 µM [falling, partial curve].

For the molecule `CCC1(c2ccc(F)cc2)NC(=O)N(CC(=O)N2CCc3ccccc32)C1=O` (stereo not given), the cell number change is -5.62%. For the same molecule, the AC50 under setting [2] was 7.31 µM [falling, partial curve].

As to `CCOc1ccc(S(=O)(=O)N2CCC(C(=O)NC3CC3)CC2)cc1Cl`, the cell number change was 32.9%. In addition, the AC50 under setting [1] was 0.00411 µM [rising, full curve, poor fit]. Also, the AC50 under setting [2] was 6.31 µM [falling, single point].

`Cc1ccc(C2=NN(S(C)(=O)=O)C(c3cccs3)C2)cc1` (stereo not given): the cell number change was found to be 4.09%. For the same molecule, the AC50 under setting [2] was 0.164 µM [rising, full curve, poor fit].

With `Cc1ccc(CSCCNC(=O)c2ccc(Cl)c(S(=O)(=O)N3CCOCC3)c2)cc1`, the cell number change is -1.33%. Also, the AC50 under setting [2] was 6.51 µM [falling, single point].

`Cc1ccc(OCCNc2ccc(S(=O)(=O)N3CCCC3)cn2)cc1`: the cell number change is -2.03%.

Turning to `O=C(c1cccs1)N1CCN(c2ccccc2)CC1`, the cell number change turned out to be 9.15%.

`CCOC(=O)Cc1cc(-c2ccc(OC)cc2)nc2ccc3ccccc3c12`: the cell number change was -1.97%.

On to `COC(=O)c1ccc(C2C(Oc3ccccc3C)C(=O)N2CCc2ccc(OC)c(OC)c2)cc1` (stereo not given), for which the cell number change was -1.13%. For the same molecule, under setting [2], the AC50 was 0.58 µM [rising, single point].

In the case of `Cc1cc(C)n(C(=O)c2ccc(S(=O)(=O)N3CCOCC3)cc2)n1`, the cell number change was -52.6%. For the same molecule, under setting [1], the AC50 was 29.1 µM [falling, single point]. Moreover, under setting [2], the AC50 was 23.1 µM [falling, single point].

Consider `COc1ccc([C@@H]2[C@@H]3C(=O)N(C(C)(C)C)C(=O)[C@@H]3[C@]3(Cc4ccccc4)C(=O)N(c4cccc(C)c4)C(=O)N23)cc1`, for which the cell number change is 12.1%. In addition, the AC50 under setting [2] is 0.206 µM [rising, full curve, poor fit].

Take `Nc1ccc(-c2cnc[nH]2)cc1[N+](=O)[O-]`: the cell number change was determined as 13.9%. In addition, the AC50 under setting [2] is 4.11 µM [rising, full curve, poor fit].

With `CCC(C)NC(=O)C(Cc1ccccc1)NS(=O)(=O)c1ccc2c(c1)CCC(=O)N2` (stereo not given), the AC50 under setting [2] is 0.116 µM [falling, single point].

Regarding `CCN(CC(=O)Nc1c(F)cccc1F)C(=O)c1csc2c1CCCC2`, the cell number change is -14.7%. Also, the AC50 under setting [1] is 0.00461 µM [falling, full curve, poor fit]. Also, the AC50 under setting [2] is 0.00461 µM [falling, full curve, poor fit].

As for `C/C(=N/NC(=O)c1cc(-c2ccc(Cl)s2)[nH]n1)c1ccco1`, the cell number change was -10.2%.

Regarding `CC(NS(=O)(=O)c1ccc(OCC(=O)NCc2ccccn2)cc1)c1ccccc1` (stereo not given), the cell number change is -1.8%. The AC50 under setting [2] is 11.6 µM [falling, single point].

For the molecule `CC1CCC(C(=O)NNC(=O)c2cc(-c3ccco3)[nH]n2)CC1` (stereo not given), the cell number change came out at 7.35%. Moreover, the AC50 under setting [2] was 29.1 µM [rising, single point].

Consider `COCCCn1c(SCC(=O)N2CCOCC2)nc2cc(Cl)ccc2c1=O`, for which the cell number change was determined as 2.39%. Also, the AC50 under setting [2] is 6.51 µM [falling, single point].

Regarding `CC1(C)CC(=O)C=C(c2ccc(I)cc2)C1`, the cell number change was determined as 18.4%. Moreover, the AC50 under setting [1] was 0.146 µM [falling, single point].

On to `N/C(=N\OC(=O)c1ccc2ccccc2c1)c1ccccc1Cl`, for which the cell number change was found to be 57.6%. For the same molecule, the AC50 under setting [1] is 29.1 µM [rising, single point]. The half-maximal activity concentration (AC50) under setting [2] is 2.91 µM [falling, single point].

Turning to `O=C(NCC1(N2CCOCC2)CCCCC1)c1cccc(S(=O)(=O)Nc2ccc(F)cc2)c1`, the cell number change is -14%.

As for `CCCS(=O)(=O)N1CCCC(C(=O)NCCCN2CCCC2=O)C1` (stereo not given), the cell number change was found to be 19.5%. Besides, under setting [2], the AC50 is 0.731 µM [falling, single point].

Take `O=C(O)CS(=O)(=O)CC(=O)O`: the cell number change was -38.8%. For the same molecule, the AC50 under setting [1] was 0.517 µM [falling, full curve].

Turning to `CNC(=O)CN1C(=O)NC2(CCc3ccccc3C2)C1=O` (stereo not given), the cell number change was found to be 14.2%. Besides, the AC50 under setting [1] was 0.184 µM [falling, full curve]. Also, the concentration at half-maximal activity (AC50) under setting [2] was 6.51 µM [falling, single point].

For the molecule `C=CCn1c(COc2cccc(C)c2C)nnc1SCC(=O)N1CCN(c2ccccc2)CC1`, the cell number change is -13.2%. Also, the AC50 under setting [2] was 20.6 µM [falling, single point].

With `C[C@@H]1CN(c2c(F)c(F)c3c(=O)c(C(=O)O)cn(C4CC4)c3c2F)C[C@H](C)N1`, the cell number change stood at 267%. The AC50 under setting [2] is 10.3 µM [falling, partial curve].

For `CCc1nn2c(=O)cc(CSCC(=O)Nc3ccccc3Cl)nc2s1`, the cell number change is 2.36%.

As to `COC(=O)c1sc(NC(=O)CSc2nc3cccnc3n2C)nc1C`, the cell number change amounted to 8.97%. Also, the AC50 under setting [2] is 29.1 µM [falling, partial curve, poor fit].

For `Cc1nccn1CC(=O)N/N=C/c1cc(Br)cs1`, the cell number change amounted to 13%. In addition, under setting [2], the AC50 is 14.6 µM [rising, single point].

Regarding `O=C(NCc1ccc(Cl)cc1)C(=O)NCC1OCCCN1S(=O)(=O)c1cccs1` (stereo not given), the cell number change is 19.4%. For the same molecule, under setting [2], the AC50 is 25.9 µM [rising, single point].

On to `CCOP(=O)(OCC)c1cccc(P(=O)(c2ccccc2)c2ccccc2)c1O`, for which the cell number change was -41.4%. For the same molecule, under setting [2], the AC50 is 0.116 µM [rising, full curve, poor fit].

For the molecule `CCC/C=C(\CCC)C(NS(=O)(=O)c1cccc2cccnc12)c1ccc(C(=O)OC)cc1` (stereo not given), the cell number change was -6.75%. In addition, under setting [2], the AC50 is 7.31 µM [rising, partial curve].

Take `Cc1ccc(S(=O)(=O)NNC(=S)NC(=O)c2ccc([N+](=O)[O-])cc2)cc1`: the cell number change came out at 9.9%. The AC50 under setting [1] is 0.82 µM [falling, single point]. Besides, the AC50 under setting [2] is 3.66 µM [falling, full curve, poor fit].

As to `CCc1nc2cc(C)nn2c2nc3ccccc3n12`, the cell number change is -15.5%.

Take `CCN1CCCC1CNC(=O)c1ccc(N2CCCC2=O)cc1` (stereo not given): the cell number change was -14.3%. The AC50 under setting [2] was 0.00517 µM [falling, full curve, poor fit].

As to `Cc1sccc1/C=N/NC(=O)c1cccc2ccccc12`, the cell number change turned out to be 14%. In addition, under setting [2], the AC50 is 14.6 µM [rising, partial curve].

For `CCn1c(SCC(=O)NC(=O)Nc2ccc3c(c2)OCCO3)nnc1-c1cccs1`, the AC50 under setting [1] is 0.366 µM [rising, full curve] and the AC50 under setting [2] is 6.51 µM [rising, partial curve, poor fit].

Regarding `CCOc1ccc(N2CC(C(=O)NCCN3C(=O)S/C(=C\c4cccnc4)C3=O)CC2=O)cc1` (stereo not given), the cell number change came to 23.8%. Besides, the AC50 under setting [2] was 6.51 µM [falling, single point].

As to `Cc1ccc(NS(=O)(=O)c2cccc(C(=O)n3ncc(C#N)c3N)c2)c(C)c1`, the cell number change was -9.49%.

As to `COc1cc(OC)cc(-c2nc3ccccc3c(=O)n2OC(=O)c2ccccc2C)c1`, the cell number change was -27%. In addition, under setting [2], the AC50 is 20.6 µM [falling, partial curve].

Turning to `CCCS(=O)(=O)c1c(S(=O)(=O)CCC)c2c3ccccc3ccn2c1C(N)=O`, the cell number change stood at 1.28%. Moreover, the AC50 under setting [2] was 6.51 µM [rising, single point].

Consider `CC(Cc1cccs1)NC(=O)Nc1ccc(F)cc1` (stereo not given), for which the cell number change is -15%. Moreover, the AC50 under setting [2] was 0.58 µM [falling, single point].

On to `CN(C)C(CNc1ccc(S(C)(=O)=O)cc1[N+](=O)[O-])c1ccccc1` (stereo not given), for which the cell number change stood at 12.9%.

As to `COc1ccc(-c2nn(CCC#N)cc2C(=O)Nc2cccc(C(=O)O)c2)cc1[N+](=O)[O-]`, the cell number change worked out at 30.8%. Further, the AC50 under setting [1] was 16.4 µM [rising, partial curve]. Moreover, the AC50 under setting [2] was 1.3 µM [falling, partial curve, poor fit].

For `Cc1cc2cc(CCNC(=O)CC(C)(C)C)c(=O)[nH]c2cc1C`, the cell number change was found to be 130%. Moreover, the AC50 under setting [1] was 13 µM [rising, partial curve].

Consider `CC(=O)c1c(C)[nH]c(C(=O)OCC(=O)Nc2cc(C)on2)c1C`, for which the cell number change was determined as 11.9%. For the same molecule, the AC50 under setting [2] is 0.461 µM [rising, full curve].

`CC(C)C[C@H]1CN=C(Nc2ccccc2)N1CC1CCC(C(C)(C)C)CC1` (stereo not given in full): the cell number change is -1.75%. The AC50 under setting [2] was 0.411 µM [rising, partial curve, poor fit].

`CC(=O)Nc1ccc2[nH]c3ccccc3c2c1`: the cell number change came to 6.03%. Further, under setting [2], the AC50 is 0.164 µM [falling, full curve, poor fit].

With `O=C(Nc1ccc(F)cc1)C(c1ccccc1)N1CCN(CC(=O)N2CCCC2)CC1` (stereo not given), the cell number change was 2.77%. Under setting [2], the AC50 is 18.4 µM [rising, partial curve].

`CC(C)Oc1cccc(C(=O)C2CCCN(C(=O)c3ccoc3)C2)c1` (stereo not given): the cell number change is -7.96%. In addition, the AC50 under setting [2] is 32.6 µM [falling, single point].

Consider `O=C(O)CCc1nn2c3ccccc3nc2n(CCN2CCCCC2)c1=O`, for which the cell number change amounted to 26.6%. Besides, the AC50 under setting [2] is 11.6 µM [rising, partial curve, poor fit].

For the molecule `Cc1cc2nc(C)n3c4ccccc4nc3n2n1`, the cell number change was -50.2%. The AC50 under setting [1] is 29.1 µM [falling, single point].

As for `CCOc1ccc(S(=O)(=O)Nc2ccc(C(=O)N3CCC3)cc2)cc1`, the cell number change turned out to be 39.2%. Under setting [1], the AC50 was 25.9 µM [rising, single point]. Besides, the AC50 under setting [2] is 18.4 µM [rising, single point].

For the molecule `O=C(NC(=S)Nc1ccc2oc(=O)ccc2c1)c1cccc(F)c1`, the cell number change stood at 4.84%. For the same molecule, the AC50 under setting [2] was 2.31 µM [falling, full curve, poor fit].

With `C[C@H]1CN=C(Nc2ccccc2)N1CCCC1CCCC1`, the cell number change was 37.1%. Besides, the AC50 under setting [1] was 1.84 µM [rising, full curve].
